Patent US20160046678A1 (ZYNGENIA, published 2016)
No constants are given. Whether binding was seen depends on the method and setting. Some binding calls cover weakened binding; strength is not graded here.

Chains of the proteins cited; added tags and fusions are not shown. Residues count along the entry.
UniProt P08887, residues 20-358: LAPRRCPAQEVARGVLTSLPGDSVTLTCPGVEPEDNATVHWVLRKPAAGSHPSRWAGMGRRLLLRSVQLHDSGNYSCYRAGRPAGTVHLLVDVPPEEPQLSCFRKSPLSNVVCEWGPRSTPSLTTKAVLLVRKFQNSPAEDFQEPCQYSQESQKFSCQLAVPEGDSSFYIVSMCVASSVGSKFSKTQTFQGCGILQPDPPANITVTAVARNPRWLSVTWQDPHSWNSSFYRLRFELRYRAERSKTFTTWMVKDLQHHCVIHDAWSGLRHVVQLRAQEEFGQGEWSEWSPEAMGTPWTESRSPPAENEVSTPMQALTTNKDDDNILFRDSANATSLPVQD

T1: TL1A (UniProt O95150)
T1 sequence (looked up): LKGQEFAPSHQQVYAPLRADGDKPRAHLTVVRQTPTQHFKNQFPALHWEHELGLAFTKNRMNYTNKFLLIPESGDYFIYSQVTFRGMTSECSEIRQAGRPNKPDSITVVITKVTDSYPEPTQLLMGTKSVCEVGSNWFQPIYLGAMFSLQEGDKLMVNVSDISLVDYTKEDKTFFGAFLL


The binders below were run against IL6R (UniProt P08887) (assay: peptide selection, Example 48).

Row | Binder | binding
1 | LDFLCYENIHNNFDCFRVM [ILC66] | binds
2 | YTWDLYIYQA [ILC28] | binds
3 | TQHLCAWDVRSQADMCIYWT [ILC57] | binds
4 | WQEQWWYKQH [ILC50] | binds
5 | FYMEFIIWSP [ILC23] | binds
6 | WCLITPWEVQCY [ILC39] | binds
7 | ILC80 (peptide) peptide: RDWRCYLMAHWVHVCGPFIGQAGQGGPGWAGGSDMDLCQDWVYESKYCVPLA | binds
8 | GDWEWVWDWCF [ILC19] | binds
9 | PCQWVIYHCF [ILC20] | binds
10 | PCEEAFAAYLE [ILC25] | binds
11 | AEFDWMQYGYGQAGQGGGSGGGGSYEFNWKYQEW [ILC33] | binds
12 | MLLHCPAMWKCQSDL [ILC60] | binds
13 | HWEFYYEFGI [ILC42] | binds
14 | SEFILCDLAMVFAECHGAA [ILC86] | binds
15 | QVYVCYVLAEQHEAICTSWA [ILC58] | binds
16 | GCDFYMNLCK [ILC46] | binds
17 | WTVWCEWENEYGGWCDVSL [ILC70] | binds
18 | SALVLCELEMVFRECHGVL [ILC84] | binds
19 | VASHCIQMPHWLLCQTLI [ILC67] | binds
20 | WYWMLEWEWD [ILC24] | binds
21 | LQCKCDEPYPSYYTCRVYF [ILC71] | binds
22 | YMQWKVEWWG [ILC34] | binds
23 | WEITWDWEYY [ILC35] | binds
24 | MTILCYEQREDMWDCWNVF [ILC63] | binds

Second part, the binder after the results:

Row | binding | Binder
25 | binds | PCYLVMMEWECM [ILC44]
26 | binds | HALHCANEERIFVQCLESS [ILC55]
27 | binds | TTMVFQASLG [ILC40]
28 | binds | VWGGCWYHFTIQHWCPTLS [ILC62]
29 | binds | SELSCYWEMKWECSWVT [ILC52]
30 | binds | VAVDCFWVTPYEPWYCTVMS [ILC75]
31 | binds | LDCACHFEEHVRTIFCSIGH [ILC64]
32 | binds | SRYVICDLDMVFRECHGAF [ILC83]
33 | binds | LTWDCYQVFEEWYDCTMSH [ILC61]
34 | binds | WLVDCWVVEDMNMICRLYE [ILC65]
35 | binds | QCFAWEFVWHCD [ILC27]
36 | binds | GPFMCMMDLHRDELLHCWASD [ILC74]
37 | binds | FCWSCEVFQMEICDELG [ILC53]
38 | binds | LCYWEVWFTWE [ILC43]
39 | binds | MYTEWQMWWIGQAGQGGGSGGGGSFYDQWEVELH [ILC31]
40 | binds | MTDRCYTYEWQYTVCYGRN [ILC77]
41 | binds | VYLECNVYEWPEAWCVVMP [ILC56]
42 | binds | WEIEWSWYWD [ILC21]
43 | binds | SELLLCAFDMVISECHGTT [ILC89]
44 | binds | LTWVCTVMQHMNHMECLLDL [ILC59]
45 | binds | LCFCYEYEWVH [ILC41]

What follows are binders tested against T1, TL1A (assay: peptide selection, Example 48).

Row | Binder | binding
46 | DYEVCWDFREDRLVYCDSIM [TLA457] | binds
47 | EYDVCWDFQLDRLVYCDSQM [TLA459] | binds
48 | SDWACPMYMHEIECSVRW [TLA464] | binds
49 | DYAVCWDFHLNRLVYCDVPV [TLA458] | binds
50 | VPEVCQWEFVKCLWNA [TLA468] | binds
51 | EYDVCWDVDLDRLVYCATTY [TLA452] | binds
52 | DYEVCWDIHLDHLVYCDAPW [TLA451] | binds
53 | DYDVCWDDYLDRLVYCEARI [TLA448] | binds
54 | QDRVCWDFHLQKLQFCELSM [TLA521] | binds
55 | LVFLCPGYRAQHHCVLLS [TLA520] | binds
56 | GTVYCQPYMSVMECAFRA [TLA489] | binds
57 | EDFLCYPAPWVLSAAGT [TLA491] | binds

The remaining lines, values ahead:

Row | binding | Binder
58 | binds | EYEVCWDFQVDRLVYCMAIT [TLA453]
59 | binds | DYAVCWDFDEDRLVYCVGPL [TLA460]
60 | binds | YYEVCWDLYLDRLVFCNADL [TLA455]
61 | binds | DYEVCWDIIVDRLVYCEAPP [TLA454]
62 | binds | AAWQCLDPEWWVCVMLN [TLA475]
63 | binds | LVSSCPYGTPSAVCNGMW [TLA485]
64 | binds | HYDVCWDYHLDRLVYCNRHM [TLA450]
65 | binds | TLLACQLKFIKCLNNW [TLA519]
66 | binds | HVELCFDKMRYCIMEL [TLA495]
67 | binds | SERDCNIQKMRKVPCLVML [TLA461]
68 | binds | VSGGCPSYMNQWECVFRW [TLA493]
